In article PMC4136804:

Molecular target: FLAG-tagged PML (isoform III)
Experiment: co-IP; myc-tagged ZNF198 and FLAG-tagged PML co-expressed in U2OS cells; anti-myc or anti-FLAG agarose; blots with anti-myc and anti-PML

B1: myc-tagged full-length ZNF198 (protein, UniProt Q9UBW7 1-1377)
chain: MDTSSVGGLELTDQTPVLLGSTAMATSLTNVGNSFSGPANPLVSRSNKFQNSSVEDDDDVVFIEPVQPPPPSVPVVADQRTITFTSSKNEELQGNDSKITPSSKELASQKGSVSETIVIDDEEDMETNQGQEKNSSNFIERRPPETKNRTNDVDFSTSSFSRSKVNAGMGNSGITTEPDSEIQIANVTTLETGVSSVNDGQLENTDGRDMNLMITHVTSLQNTNLGDVSNGLQSSNFGVNIQTYTPSLTSQTKTGVGPFNPGRMNVAGDVFQNGESATHHNPDSWISQSASFPRNQKQPGVDSLSPVASLPKQIFQPSVQQQPTKPVKVTCANCKKPLQKGQTAYQRKGSAHLFCSTTCLSSFSHKPAPKKLCVMCKKDITTMKGTIVAQVDSSESFQEFCSTSCLSLYEDKQNPTKGALNKSRCTICGKLTEIRHEVSFKNMTHKLCSDHCFNRYRMANGLIMNCCEQCGEYLPSKGAGNNVLVIDGQQKRFCCQSCVSEYKQVGSHPSFLKEVRDHMQDSFLMQPEKYGKLTTCTGCRTQCRFFDMTQCIGPNGYMEPYCSTACMNSHKTKYAKSQSLGIICHFCKRNSLPQYQATMPDGKLYNFCNSSCVAKFQALSMQSSPNGQFVAPSDIQLKCNYCKNSFCSKPEILEWENKVHQFCSKTCSDDYKKLHCIVTYCEYCQEEKTLHETVNFSGVKRPFCSEGCKLLYKQDFARRLGLRCVTCNYCSQLCKKGATKELDGVVRDFCSEDCCKKFQDWYYKAARCDCCKSQGTLKERVQWRGEMKHFCDQHCLLRFYCQQNEPNMTTQKGPENLHYDQGCQTSRTKMTGSAPPPSPTPNKEMKNKAVLCKPLTMTKATYCKPHMQTKSCQTDDTWRTEYVPVPIPVPVYIPVPMHMYSQNIPVPTTVPVPVPVPVFLPAPLDSSEKIPAAIEELKSKVSSDALDTELLTMTDMMSEDEGKTETTNINSVIIETDIIGSDLLKNSDPETQSSMPDVPYEPDLDIEIDFPRAAEELDMENEFLLPPVFGEEYEEQPRPRSKKKGAKRKAVSGYQSHDDSSDNSECSFPFKYTYGVNAWKHWVKTRQLDEDLLVLDELKSSKSVKLKEDLLSHTTAELNYGLAHFVNEIRRPNGENYAPDSIYYLCLGIQEYLCGSNRKDNIFIDPGYQTFEQELNKILRSWQPSILPDGSIFSRVEEDYLWRIKQLGSHSPVALLNTLFYFNTKYFGLKTVEQHLRLSFGTVFRHWKKNPLTMENKACLRYQVSSLCGTDNEDKITTGKRKHEDDEPVFEQIENTANPSRCPVKMFECYLSKSPQNLNQRMDVFYLQPECSSSTDSPVWYTSTSLDRNTLENMLVRVLLVKDIYDKDNYELDEDTD
**Q.** B1 was tested. Which binding did it give?
**A.** binds

Results are given in words; binding and its absence hold for the method and conditions named. In cells and extracts the contact can be indirect. Binding calls can cover weak binding; strength is not graded here. Where a sequence is shown, tags or fusion partners need not be part of it.
